Assay results as given in patent US10682415B2, “Thermogel formulation for combination drug delivery” (Wisconsin Alumni Research Foundation, priority 2013, dated 2020).
For at least one compound, name, drawing or mass did not settle the structure. Some results were stated once for a whole list of compounds, not compound by compound.

What was measured:
Type in all cases: physicochemical
[1] = Initial gel formation experiments (stable thermogel with PLGA-PEG-PLGA); settings: drug(s) with PLGA-PEG-PLGA polymer, about 1 mg drug per 10 mg polymer
[2] = Rehydration time, gelation time and physical observation of lyophilized sample and gel; settings: single, two and three drug compositions
Procedure: (§1) The drug delivery system containing a combination of three drugs can be prepared as follows. Paclitaxel (PTX; 6 mg), 17-AAG (6 mg), and rapamycin (RAPA; 3 mg) were combined with 1.5 mL of tent-Butanol (TBA) to obtain a clear solution at 60° C. Separately, cold water was added to PLGA1.5k-PEG1k-PLGA1.5k and the mixture was incubated at refrigeration temperature (4° C.) for 2-3 days to obtain 100 mg/mL of polymer solution. The polymer solution (1.5 mL) was rapidly added to 1.5 mL of drug/TBA mixture (50% TBA). The mixture was rapidly vortexed and warmed to 60° C. for less than one minute to prevent phase separation. The mixture was rapidly frozen with ethanol/dry ice (−72° C.) for 1 hour and lyophilized for 24 hours (below 0.8 bar at −45° C.).
(§2) Samples were diluted with cold water and kept at 4° C. Liquefied samples were passed through about […] (e.g., clear solution (x)) to about 0.2 μm (e.g., clear solution (y)) of a regenerated cellulose membrane filter (RC filter) at 4° C. and concentrations were quantified using RP-HPLC.
In general, an elegant lyophilized cake can improve rehydration time and solubility of the lyophilized cake in aqueous solution.

[3] = Drug content incorporated in thermogel quantified by RP-HPLC; settings: single, two and three drug compositions; initial level 6.0 mg/mL
Procedure: as §1, §2

[4] = Drug release kinetics of thermogel at 37° C. (cassette MWCO 20,000, first-order model)
Procedure: The drug release kinetics of the composition at 37° C. was evaluated. Data is shown below in Table 1-3. […] Each cassette (MWCO 20,000) contained 0.3 mL of Triogel (n=3). […] The profile of the release kinetics was fit into a first-order model (Prism ver 5.0), as illustrated in FIG. 2.
The release kinetics of 1-drug thermogels (37° C.) were analyzed. Separately, compositions having 6 mg, 6 mg, and 3 mg of PTX, 17-AAG, and RAPA mixed with 60, 60, and 30 mg of polymers, respectively, in 1.0 mL of water were evaluated. Each cassette (MWCO 20,000) contained 0.3 mL of Thermogel (n=3). Profile of release kinetics was fit into a first-order model (Prism ver 5.0).

Structure (SMILES)	Thermogel Formation [1]	Physical obs. of gel [2]	Final level of drug, 17-AAG [3]	drug retained in thermogel ([4]; for approximately 30 hours, single drug thermogels)	k: release kinetic constant ([4]; release from Triogel (6 mg/6 mg/3 mg PTX/17-AAG/RAPA, 150 mg polymer, 1 mL water), 37° C., n = 3)	k (release kinetic constant) ([4]; release from two drug thermogel PTX/17-AAG (6 mg/6 mg in 120 mg polymer, 1 mL water), 37° C.)	k (release kinetic constant) ([4]; release from two drug thermogel RAPA/17-AAG (3 mg/6 mg in 90 mg polymer, 1 mL water), 37° C.)	k (release kinetic constant) ([4]; single drug compositions, 37° C., n = 3)
Cc1cc2c(C(C)C)c(O)c(O)c(C=O)c2c(O)c1-c1c(C)cc2c(C(C)C)c(O)c(O)c(C=O)c2c1O [Gossypol, gossypol]	No	–	–	–	–	–	–	–
C=CCNC1=C2C[C@@H](C)C[C@H](OC)[C@H](O)[C@@H](C)/C=C(\C)[C@H](OC(N)=O)[C@@H](OC)/C=C\C=C(/C)C(=O)NC(=CC1=O)C2=O [17-AAG, 17-allylamino-17-demethoxygeldanamycin]	Yes	Good	5.3 ± 0.3 mg/mL	More than 50%	0.0770 ± 0.013 h⁻¹	0.1906 ± 0.0443 h⁻¹	0.1093 ± 0.0265 h⁻¹	0.06706 ± 0.0254 h⁻¹
